PubChem BioAssay AID1671195, Yale University, 2021

Aim: 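Regulators of LDL receptor activity judged by labelled LDL uptake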 (primary screen)
System: human Huh7 hepatoma cells
Knock-down reagent: siRNA pool against human genes, 18 nM
Time to read-out: about 2 to 2.5 days of knockdown, then 8 h LDL uptake
Treatment: DiI-labelled LDL at 30 µg/ml for 8 h, in lipoprotein-deficient serum medium
Detection: 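Per-cell DiI-LDL intensity by automated imaging; well means scaled to the plate median and given as a robust z-score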
Direction: robust z-score: higher = more LDL uptake after knockdown
Rule for the call: 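a gene counts as active if at least two replicate z-scores exceed ±2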
The deposit covers about 22,000 reagents; this is a random part of them. About 1,510 of them (6.9%) count as active. 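Active includes knockdowns raising or lowering LDL uptake; positive z-scores mean more uptake, negative mean less.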

LOC400161 (retired record): robust z-score, replicate 1 = -1.71; robust z-score, replicate 2 = -2.05; robust z-score, replicate 3 = -2.17; Outcome = active
DYNLT2 (dynein light chain Tctex-type 2): robust z-score, replicate 1 = 0.329; robust z-score, replicate 2 = 0.074; robust z-score, replicate 3 = -0.0848; Outcome = inactive
TMEM63B (transmembrane protein 63B): robust z-score, replicate 1 = -0.574; robust z-score, replicate 2 = -0.648; robust z-score, replicate 3 = -0.35; Outcome = inactive
LGALS13 (galectin 13): robust z-score, replicate 1 = 1.09; robust z-score, replicate 2 = -0.112; robust z-score, replicate 3 = 0.44; Outcome = inactive
GSTA5 (glutathione S-transferase alpha 5): robust z-score, replicate 1 = -0.307; robust z-score, replicate 2 = -2.18; robust z-score, replicate 3 = 0.491; Outcome = inactive
LOC389814 (retired record): robust z-score, replicate 1 = 0.628; robust z-score, replicate 2 = 0.53; robust z-score, replicate 3 = 0.493; Outcome = inactive
FAT2 (FAT atypical cadherin 2): robust z-score, replicate 1 = -0.598; robust z-score, replicate 2 = -0.329; robust z-score, replicate 3 = -0.742; Outcome = inactive
SLC35B4: robust z-score, replicate 1 = -0.0515; robust z-score, replicate 2 = 0.248; robust z-score, replicate 3 = -0.143; Outcome = inactive
WFDC21P (WAP four-disulfide core domain 21, pseudogene): robust z-score, replicate 1 = 0.702; robust z-score, replicate 2 = 1.38; robust z-score, replicate 3 = 1.27; Outcome = inactive
KMT2C (lysine methyltransferase 2C): robust z-score, replicate 1 = -0.998; robust z-score, replicate 2 = -1.44; robust z-score, replicate 3 = -1.42; Outcome = inactive
LOC388169 (retired record): robust z-score, replicate 1 = -0.125; robust z-score, replicate 2 = -0.193; robust z-score, replicate 3 = 0.193; Outcome = inactive
ASCL3 (achaete-scute family bHLH transcription factor 3): robust z-score, replicate 1 = -0.532; robust z-score, replicate 2 = -0.45; robust z-score, replicate 3 = -0.281; Outcome = inactive

No new results follow: entries from further up.
WFDC21P (WAP four-disulfide core domain 21, pseudogene): robust z-score, replicate 1 = 0.702; robust z-score, replicate 2 = 1.38; robust z-score, replicate 3 = 1.27; Outcome = inactive
KMT2C (lysine methyltransferase 2C): robust z-score, replicate 1 = -0.998; robust z-score, replicate 2 = -1.44; robust z-score, replicate 3 = -1.42; Outcome = inactive
